No constants are given. Whether binding was seen depends on the method and setting. Binding seen in cells or lysates may run through a third protein. Some binding calls cover weakened binding; strength is not graded here.
Experiments:
[1] = biological target: β-catenin (human (endogenous in MDA-MB-231)) (UniProt P35222); assay: co-IP; RIPA lysate of MDA-MB-231/CLDN6 cells; specific primary antibody at 4 °C overnight, Protein A/G PLUS-Agarose beads, western blot
[2] = biological target: β-catenin (human (endogenous in MDA-MB-231)) (UniProt P35222); assay: proximity ligation; fixed MDA-MB-231/CLDN6 cells; anti-CLDN6 (rabbit) and anti-β-catenin (mouse) antibodies, Duolink PLA probes; signal only when the antigens are no more than 40 nm apart

By UniProt entry, the sequences of proteins in these tests, tags left out.
UniProt P35222: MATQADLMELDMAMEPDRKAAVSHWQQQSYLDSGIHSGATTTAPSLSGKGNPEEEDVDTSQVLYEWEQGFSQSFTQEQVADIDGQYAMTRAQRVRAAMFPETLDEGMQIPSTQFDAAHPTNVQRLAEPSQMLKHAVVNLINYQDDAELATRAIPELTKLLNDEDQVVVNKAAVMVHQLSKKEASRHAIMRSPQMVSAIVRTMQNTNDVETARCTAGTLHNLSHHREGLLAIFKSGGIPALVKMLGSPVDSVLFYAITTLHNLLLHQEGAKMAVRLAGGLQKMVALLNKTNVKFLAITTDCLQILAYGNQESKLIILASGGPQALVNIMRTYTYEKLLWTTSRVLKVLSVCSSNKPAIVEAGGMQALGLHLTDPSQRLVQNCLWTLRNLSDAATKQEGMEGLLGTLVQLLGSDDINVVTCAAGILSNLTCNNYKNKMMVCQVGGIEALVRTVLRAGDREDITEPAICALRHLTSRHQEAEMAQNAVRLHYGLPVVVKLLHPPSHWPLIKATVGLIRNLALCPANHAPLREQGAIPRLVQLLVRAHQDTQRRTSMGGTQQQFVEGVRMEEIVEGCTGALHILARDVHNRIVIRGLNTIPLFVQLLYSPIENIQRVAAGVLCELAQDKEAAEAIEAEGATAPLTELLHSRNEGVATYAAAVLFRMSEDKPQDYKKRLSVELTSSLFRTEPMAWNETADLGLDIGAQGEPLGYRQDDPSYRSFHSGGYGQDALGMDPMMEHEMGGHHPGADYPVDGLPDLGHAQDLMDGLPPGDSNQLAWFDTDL

B1: Claudin6 (protein, UniProt P56747 1-220)
chain: MASAGMQILGVVLTLLGWVNGLVSCALPMWKVTAFIGNSIVVAQVVWEGLWMSCVVQSTGQMQCKVYDSLLALPQDLQAARALCVIALLVALFGLLVYLAGAKCTTCVEEKDSKARLVLTSGIVFVISGVLTLIPVCWTAHAIIRDFYNPLVAEAQKRELGASLYLGWAASGLLLLGGGLLCCTCPSGGSQGPSHYMARYSTSAPAISRGPSEYPTKNYV
Question: With B1 as the binder, how does the binding [1] read?
Answer: binds

Question: And the binding [2]?
Answer: binds

Reference: publication PMC7038627
